Results: paper PMC8741891
No constants are given. Whether binding was seen depends on the method and setting. Some results given as binding are weak or reduced against the parent protein; the word gives no strength.

The chains behind the UniProt entries cited, without tags or fusion partners. Residues count along the entry.
UniProt P01556, residues 22-124: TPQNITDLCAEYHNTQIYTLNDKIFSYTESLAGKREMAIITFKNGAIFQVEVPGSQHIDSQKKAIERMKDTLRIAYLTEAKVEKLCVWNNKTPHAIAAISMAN
UniProt P01555, residues 19-258: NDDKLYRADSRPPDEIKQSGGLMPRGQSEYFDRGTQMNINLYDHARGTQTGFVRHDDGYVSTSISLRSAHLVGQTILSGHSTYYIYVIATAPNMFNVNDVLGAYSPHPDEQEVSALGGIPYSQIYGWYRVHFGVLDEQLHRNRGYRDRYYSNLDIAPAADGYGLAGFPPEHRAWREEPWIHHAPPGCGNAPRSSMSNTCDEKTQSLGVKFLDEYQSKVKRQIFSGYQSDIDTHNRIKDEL

Target: Cholera toxin B pentamer (UniProt P01556)
Assay: ELISA; both purified

Substance: Cholera toxin A subunit (from UniProt P01555 19-258)
- binding: binds
